{"source": "PubChem BioAssay AID1259254 (NCATS, 2017)", "aim": "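Gene knock-downs that lead to re-replication, shown by excess G2 DNA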 (primary screen)", "cells": "human HCT116 colorectal cancer cells", "reagent": "single siRNA against human genes", "duration": "3 days", "measured": "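Nuclei stained with Hoechst and imaged; cell-cycle phase assigned by DNA content; G2 share scaled per plate, non-targeting siRNA 0%, GMNN siRNA 100%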", "direction": "G2 robust z-score: higher = more G2 cells, more excess DNA replication", "call rule": "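Active siRNAs have a G2 robust z of 5 or more median absolute deviations over the median, which in these data means about 38% or higher of GMNN control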", "note": "Here is an unselected part of about 59,000 reagents tested. Over the whole deposit, about 1,550 (2.6%) are marked active. 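G2 share is only a proxy for re-replication; each gene was hit by three separate siRNAs, and active genes were retested.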 Reagents against one gene are numbered here. Further read-outs or replicates are left out here. Not stated in the record: the amount of reagent."}
{"gene knocked down": "DNM1", "reagent no.": 1, "G2 robust z-score": -1.26, "Call": "inactive"}
{"gene knocked down": "DNM1", "reagent no.": 2, "G2 robust z-score": 0.128, "Call": "inactive"}
{"gene knocked down": "DNM1", "reagent no.": 3, "G2 robust z-score": -0.713, "Call": "inactive"}
{"gene knocked down": "EXOSC5", "reagent no.": 1, "G2 robust z-score": 1.76, "Call": "inactive"}
{"gene knocked down": "EXOSC5", "reagent no.": 2, "G2 robust z-score": -0.393, "Call": "inactive"}
{"gene knocked down": "EXOSC5", "reagent no.": 3, "G2 robust z-score": 3.1, "Call": "inactive"}

The list goes on; the last 2 above are carried over.
{"gene knocked down": "EXOSC5", "reagent no.": 2, "G2 robust z-score": -0.393, "Call": "inactive"}
{"gene knocked down": "EXOSC5", "reagent no.": 3, "G2 robust z-score": 3.1, "Call": "inactive"}
{"gene knocked down": "FAM91A1", "reagent no.": 1, "G2 robust z-score": 0.941, "Call": "inactive"}
{"gene knocked down": "FAM91A1", "reagent no.": 2, "G2 robust z-score": 1.72, "Call": "inactive"}
{"gene knocked down": "FAM91A1", "reagent no.": 3, "G2 robust z-score": 0.862, "Call": "inactive"}
{"gene knocked down": "SLC24A3", "reagent no.": 1, "G2 robust z-score": 1.98, "Call": "inactive"}
{"gene knocked down": "SLC24A3", "reagent no.": 2, "G2 robust z-score": -0.347, "Call": "inactive"}
{"gene knocked down": "SLC24A3", "reagent no.": 3, "G2 robust z-score": 0.0229, "Call": "inactive"}
{"gene knocked down": "IGFL2", "reagent no.": 1, "G2 robust z-score": 0.729, "Call": "inactive"}
{"gene knocked down": "IGFL2", "reagent no.": 2, "G2 robust z-score": -0.527, "Call": "inactive"}
{"gene knocked down": "IGFL2", "reagent no.": 3, "G2 robust z-score": -0.352, "Call": "inactive"}
{"gene knocked down": "TRIT1", "reagent no.": 1, "G2 robust z-score": -0.672, "Call": "inactive"}
{"gene knocked down": "TRIT1", "reagent no.": 2, "G2 robust z-score": -0.431, "Call": "inactive"}
{"gene knocked down": "TRIT1", "reagent no.": 3, "G2 robust z-score": 0.139, "Call": "inactive"}
